Experimental data as given in ChEMBL document CHEMBL1687827, “Profiling the Aspergillus fumigatus proteome in response to caspofungin” (2011).
The source gives many values for each of these; only a part stands here.

Tests used:
Format in all cases: functional
Aspergillus fumigatus [1] = assay: Induction of change in Cytosolic large ribosomal subunit protein L7A protein level in iTRAQ114 labelled cell wall fraction of drug-resistant Aspergillus fumigatus EMFR-S678P at 0.12 ug/ml after 24 hrs in YPD medium by MS (MS/MS) analysis relative to control
Aspergillus fumigatus [2] = assay: Induction of change in 60s ribosomal protein l2 protein level in iTRAQ114 labelled secreted fraction of drug-susceptible Aspergillus fumigatus KU80 delta-akuB at 0.12 ug/ml after 24 hrs in YPD medium by MS (MS/MS) analysis relative to control
Aspergillus fumigatus [3] = assay: Induction of change in cytochrome c oxidase subunit Va, putative protein level in iTRAQ-118 labelled cell wall fraction of drug-resistant Aspergillus fumigatus EMFR-S678P at 0.12 ug/ml after 24 hrs in YPD medium by MS (MS/MS) analysis relative to control
Aspergillus fumigatus [4] = assay: Induction of change in IgE-binding protein level in iTRAQ114 labelled secreted fraction of drug-resistant Aspergillus fumigatus EMFR-S678P at 0.12 ug/ml after 24 hrs in YPD medium by MS (MS/MS) analysis relative to control
Aspergillus fumigatus [5] = assay: Induction of change in Hsp90 binding co-chaperone (Sba1), putative protein level in iTRAQ-116 labelled secreted fraction of drug-susceptible Aspergillus fumigatus KU80 delta-akuB at 0.12 ug/ml after 48 hrs in YPD medium by MS (MS/MS) analysis relative to control
Aspergillus fumigatus [6] = assay: Induction of change in ribosomal protein L34 protein, putative protein level in iTRAQ-118 labelled cell wall fraction of drug-susceptible Aspergillus fumigatus KU80 delta-akuB at 0.12 ug/ml after 24 hrs in YPD medium by MS (MS/MS) analysis relative to control
Aspergillus fumigatus [7] = assay: Induction of change in 37S ribosomal protein S24 protein level in iTRAQ-118 labelled cell wall fraction of drug-susceptible Aspergillus fumigatus KU80 delta-akuB at 0.12 ug/ml after 24 hrs in YPD medium by MS (MS/MS) analysis relative to control
Aspergillus fumigatus [8] = assay: Induction of change in FKBP-type peptidyl-prolyl isomerase, putative protein level in iTRAQ-116 labelled secreted fraction of drug-susceptible Aspergillus fumigatus KU80 delta-akuB at 0.12 ug/ml after 48 hrs in YPD medium by MS (MS/MS) analysis relative to control
Aspergillus fumigatus [9] = assay: Induction of change in 60S ribosomal protein L9 b protein level in iTRAQ114 labelled secreted fraction of drug-susceptible Aspergillus fumigatus KU80 delta-akuB at 0.12 ug/ml after 24 hrs in YPD medium by MS (MS/MS) analysis relative to control
Aspergillus fumigatus [10] = assay: Induction of change in nascent polypeptide-associated complex (NAC) subunit, putative protein level in iTRAQ-116 labelled secreted fraction of drug-susceptible Aspergillus fumigatus KU80 delta-akuB at 0.12 ug/ml after 48 hrs in YPD medium by MS (MS/MS) analysis relative to control
Aspergillus fumigatus [11] = assay: Induction of change in ATP synthase proteolipid P2, putative gene expression in drug-susceptible Aspergillus fumigatus KU80 delta-akuB at 0.12 ug/ml after 48 hrs in YPD medium by microarray analysis relative to control
Aspergillus fumigatus [12] = assay: Induction of change in C2H2 transcription factor (Seb1), putative, putative gene expression in drug-susceptible Aspergillus fumigatus KU80 delta-akuB at 0.12 ug/ml after 24 hrs in YPD medium by microarray analysis relative to control
Aspergillus fumigatus [13] = assay: Induction of change in Mn superoxide dismutase MnSOD gene expression in drug-susceptible Aspergillus fumigatus KU80 delta-akuB at 0.12 ug/ml after 24 hrs in YPD medium by microarray analysis relative to control
Aspergillus fumigatus [14] = assay: Induction of change in 40s ribosomal protein s11 gene expression in drug-susceptible Aspergillus fumigatus KU80 delta-akuB at 0.12 ug/ml after 24 hrs in YPD medium by microarray analysis relative to control
Aspergillus fumigatus [15] = assay: Induction of change in hypothetical protein level in iTRAQ-116 labelled secreted fraction of drug-susceptible Aspergillus fumigatus KU80 delta-akuB at 0.12 ug/ml after 48 hrs in YPD medium by MS (MS/MS) analysis relative to control
Aspergillus fumigatus [16] = assay: Induction of change in 40S ribosomal protein S8e protein level in iTRAQ-118 labelled cell wall fraction of drug-resistant Aspergillus fumigatus EMFR-S678P at 0.12 ug/ml after 24 hrs in YPD medium by MS (MS/MS) analysis relative to control
Aspergillus fumigatus [17] = assay: Induction of change in PT repeat family protein level in iTRAQ-116 labelled secreted fraction of drug-susceptible Aspergillus fumigatus KU80 delta-akuB at 0.12 ug/ml after 48 hrs in YPD medium by MS (MS/MS) analysis relative to control
Aspergillus fumigatus [18] = assay: Induction of change in 60S ribosomal protein L35Ae protein level in iTRAQ114 labelled cell wall fraction of drug-susceptible Aspergillus fumigatus KU80 delta-akuB at 0.12 ug/ml after 24 hrs in YPD medium by MS (MS/MS) analysis relative to control
Aspergillus fumigatus [19] = assay: Induction of change in allergen Asp F4 protein level in iTRAQ-116 labelled secreted fraction of drug-resistant Aspergillus fumigatus EMFR-S678P at 0.12 ug/ml after 48 hrs in YPD medium by MS (MS/MS) analysis relative to control
Aspergillus fumigatus [20] = assay: Induction of change in endo-chitosanase pseudogene protein level in iTRAQ-116 labelled secreted fraction of drug-susceptible Aspergillus fumigatus KU80 delta-akuB at 0.12 ug/ml after 48 hrs in YPD medium by MS (MS/MS) analysis relative to control
Aspergillus fumigatus [21] = assay: Induction of change in allergen Asp F4 protein level in iTRAQ114 labelled secreted fraction of drug-susceptible Aspergillus fumigatus KU80 delta-akuB at 0.12 ug/ml after 24 hrs in YPD medium by MS (MS/MS) analysis relative to control
Aspergillus fumigatus [22] = assay: Induction of change in plasma membrane H -ATPase protein level in iTRAQ-116 labelled cell wall fraction of drug-susceptible Aspergillus fumigatus KU80 delta-akuB at 0.12 ug/ml after 48 hrs in YPD medium by MS (MS/MS) analysis relative to control
Aspergillus fumigatus [23] = assay: Induction of change in citrate synthase Cit1, putative protein level in iTRAQ-116 labelled secreted fraction of drug-susceptible Aspergillus fumigatus KU80 delta-akuB at 0.12 ug/ml after 48 hrs in YPD medium by MS (MS/MS) analysis relative to control
Aspergillus fumigatus [24] = assay: Induction of change in ribosomal protein S8 protein level in iTRAQ114 labelled secreted fraction of drug-susceptible Aspergillus fumigatus KU80 delta-akuB at 0.12 ug/ml after 24 hrs in YPD medium by MS (MS/MS) analysis relative to control
Aspergillus fumigatus [25] = assay: Induction of change in Hsp90 binding co-chaperone (Sba1), putative protein level in iTRAQ-116 labelled secreted fraction of drug-resistant Aspergillus fumigatus EMFR-S678P at 0.12 ug/ml after 48 hrs in YPD medium by MS (MS/MS) analysis relative to control

Compound: CC[C@H](C)C[C@H](C)CCCCCCCCC(=O)N[C@H]1C[C@@H](O)[C@@H](NCCN)NC(=O)[C@@H]2[C@@H](O)CCN2C(=O)[C@H]([C@H](O)CCN)NC(=O)[C@H]([C@H](O)[C@@H](O)c2ccc(O)cc2)NC(=O)[C@@H]2C[C@@H](O)CN2C(=O)[C@H]([C@@H](C)O)NC1=O [CASPOFUNGIN]
- fold change (FC) (Aspergillus fumigatus [1]): 1.07
- fold change (FC) (Aspergillus fumigatus [2]): -1.1
- fold change (FC) (Aspergillus fumigatus [3]): -1.07
- fold change (FC) (Aspergillus fumigatus [4]): 1.52
- fold change (FC) (Aspergillus fumigatus [5]): -2.1
- fold change (FC) (Aspergillus fumigatus [6]): 2.8
- fold change (FC) (Aspergillus fumigatus [7]): 2.1
- fold change (FC) (Aspergillus fumigatus [8]): -13.9
- fold change (FC) (Aspergillus fumigatus [9]): -1
- fold change (FC) (Aspergillus fumigatus [10]): -16
- fold change (FC) (Aspergillus fumigatus [11]): -2.3
- fold change (FC) (Aspergillus fumigatus [12]): -3.9
- fold change (FC) (Aspergillus fumigatus [13]): -9.2
- fold change (FC) (Aspergillus fumigatus [14]): 3.1
- fold change (FC) (Aspergillus fumigatus [15]): >-16
- fold change (FC) (Aspergillus fumigatus [16]): -1.07
- fold change (FC) (Aspergillus fumigatus [17]): -16
- fold change (FC) (Aspergillus fumigatus [18]): 2.3
- fold change (FC) (Aspergillus fumigatus [19]): 1.15
- fold change (FC) (Aspergillus fumigatus [20]): -7
- fold change (FC) (Aspergillus fumigatus [21]): 2.3
- fold change (FC) (Aspergillus fumigatus [22]): -1.5
- fold change (FC) (Aspergillus fumigatus [23]): -13.9
- fold change (FC) (Aspergillus fumigatus [24]): 1.1
- fold change (FC) (Aspergillus fumigatus [25]): 1.15
